{"source": "the supplement of paper PMC11438910", "binders": {"B1": {"name": "4-80.1 (protein)", "chain 1": "QVQLQESGPGLVKPSETLSLTCAVSGIPISTYWWSWIRQTPEKGLEWIGEIDGNGGGTNYNPSLQSRVTFSKDASKNQFSLRLNSVTAADTAVFYCARLWGNAYWGQGVLVTVSS", "chain 2": "DVVMTQSPLSLPINPGQPASISCRSSQSLVYSDGKTYLTWYQQKPGQPPRRLIYQVSKRDSGVPDRFSGSGAGTDFTLKISRVESEDVGIYYCLQGTHLPYTFGQGTKVEIK"}}, "assay_in_all_cases": "fluorescence intensity of antibody binding to polysaccharide-coupled beads; higher = stronger binding", "key": {"[1]": {"target": "pneumococcal polysaccharide Pn35C"}, "[2]": {"target": "pneumococcal polysaccharide Pn35F"}, "[3]": {"target": "pneumococcal polysaccharide Pn36"}, "[4]": {"target": "pneumococcal polysaccharide Pn37"}, "[5]": {"target": "pneumococcal polysaccharide Pn38"}, "[6]": {"target": "pneumococcal polysaccharide Pn39"}, "[7]": {"target": "pneumococcal polysaccharide Pn4"}, "[8]": {"target": "pneumococcal polysaccharide Pn40"}, "[9]": {"target": "pneumococcal polysaccharide Pn41A"}, "[10]": {"target": "pneumococcal polysaccharide Pn41F"}, "[11]": {"target": "pneumococcal polysaccharide Pn42"}, "[12]": {"target": "pneumococcal polysaccharide Pn43"}, "[13]": {"conditions": "antibody concentration 2337.65 ng/mL"}, "[14]": {"conditions": "antibody concentration 12500 ng/mL"}, "[15]": {"conditions": "antibody concentration 0.1 ng/mL"}, "[16]": {"conditions": "antibody concentration 0.534724 ng/mL"}, "[17]": {"conditions": "antibody concentration 2.8593 ng/mL"}, "[18]": {"conditions": "antibody concentration 15.2894 ng/mL"}, "[19]": {"conditions": "antibody concentration 81.7561 ng/mL"}, "[20]": {"conditions": "antibody concentration 437.17 ng/mL"}}, "note": "Some of the results follow. Most of these values are background signal.", "data": [{"binder": "B1", "values": [{"measurement": "fluorescence intensity", "setting": "[1]; [13]", "result": 222, "unit": "MFI"}, {"measurement": "fluorescence intensity", "setting": "[1]; [14]", "result": 288, "unit": "MFI"}, {"measurement": "fluorescence intensity", "setting": "[2]; [15]", "result": 18.5, "unit": "MFI"}, {"measurement": "fluorescence intensity", "setting": "[2]; [16]", "result": 19, "unit": "MFI"}, {"measurement": "fluorescence intensity", "setting": "[2]; [17]", "result": 17.8, "unit": "MFI"}, {"measurement": "fluorescence intensity", "setting": "[2]; [18]", "result": 19.8, "unit": "MFI"}, {"measurement": "fluorescence intensity", "setting": "[2]; [19]", "result": 23.8, "unit": "MFI"}, {"measurement": "fluorescence intensity", "setting": "[2]; [20]", "result": 45, "unit": "MFI"}, {"measurement": "fluorescence intensity", "setting": "[2]; [13]", "result": 77.5, "unit": "MFI"}, {"measurement": "fluorescence intensity", "setting": "[2]; [14]", "result": 111, "unit": "MFI"}, {"measurement": "fluorescence intensity", "setting": "[3]; [15]", "result": 15.5, "unit": "MFI"}, {"measurement": "fluorescence intensity", "setting": "[3]; [16]", "result": 19.5, "unit": "MFI"}, {"measurement": "fluorescence intensity", "setting": "[3]; [17]", "result": 38, "unit": "MFI"}, {"measurement": "fluorescence intensity", "setting": "[3]; [18]", "result": 157, "unit": "MFI"}, {"measurement": "fluorescence intensity", "setting": "[3]; [19]", "result": 640, "unit": "MFI"}, {"measurement": "fluorescence intensity", "setting": "[3]; [20]", "result": 1470, "unit": "MFI"}, {"measurement": "fluorescence intensity", "setting": "[3]; [13]", "result": 1880, "unit": "MFI"}, {"measurement": "fluorescence intensity", "setting": "[3]; [14]", "result": 2040, "unit": "MFI"}, {"measurement": "fluorescence intensity", "setting": "[4]; [15]", "result": 25.5, "unit": "MFI"}, {"measurement": "fluorescence intensity", "setting": "[4]; [16]", "result": 27.5, "unit": "MFI"}, {"measurement": "fluorescence intensity", "setting": "[4]; [17]", "result": 26, "unit": "MFI"}, {"measurement": "fluorescence intensity", "setting": "[4]; [18]", "result": 26, "unit": "MFI"}, {"measurement": "fluorescence intensity", "setting": "[4]; [19]", "result": 31, "unit": "MFI"}, {"measurement": "fluorescence intensity", "setting": "[4]; [20]", "result": 62.5, "unit": "MFI"}, {"measurement": "fluorescence intensity", "setting": "[4]; [13]", "result": 188, "unit": "MFI"}, {"measurement": "fluorescence intensity", "setting": "[4]; [14]", "result": 443, "unit": "MFI"}, {"measurement": "fluorescence intensity", "setting": "[5]; [15]", "result": 25, "unit": "MFI"}, {"measurement": "fluorescence intensity", "setting": "[5]; [16]", "result": 25.5, "unit": "MFI"}, {"measurement": "fluorescence intensity", "setting": "[5]; [17]", "result": 26, "unit": "MFI"}, {"measurement": "fluorescence intensity", "setting": "[5]; [18]", "result": 27, "unit": "MFI"}, {"measurement": "fluorescence intensity", "setting": "[5]; [19]", "result": 28.5, "unit": "MFI"}, {"measurement": "fluorescence intensity", "setting": "[5]; [20]", "result": 47.5, "unit": "MFI"}, {"measurement": "fluorescence intensity", "setting": "[5]; [13]", "result": 68.5, "unit": "MFI"}, {"measurement": "fluorescence intensity", "setting": "[5]; [14]", "result": 96.8, "unit": "MFI"}, {"measurement": "fluorescence intensity", "setting": "[6]; [15]", "result": 18, "unit": "MFI"}, {"measurement": "fluorescence intensity", "setting": "[6]; [16]", "result": 18, "unit": "MFI"}, {"measurement": "fluorescence intensity", "setting": "[6]; [17]", "result": 18, "unit": "MFI"}, {"measurement": "fluorescence intensity", "setting": "[6]; [18]", "result": 22.5, "unit": "MFI"}, {"measurement": "fluorescence intensity", "setting": "[6]; [19]", "result": 56, "unit": "MFI"}, {"measurement": "fluorescence intensity", "setting": "[6]; [20]", "result": 380, "unit": "MFI"}, {"measurement": "fluorescence intensity", "setting": "[6]; [13]", "result": 865, "unit": "MFI"}, {"measurement": "fluorescence intensity", "setting": "[6]; [14]", "result": 1170, "unit": "MFI"}, {"measurement": "fluorescence intensity", "setting": "[7]; [15]", "result": 17, "unit": "MFI"}, {"measurement": "fluorescence intensity", "setting": "[7]; [16]", "result": 18.5, "unit": "MFI"}, {"measurement": "fluorescence intensity", "setting": "[7]; [17]", "result": 19.8, "unit": "MFI"}, {"measurement": "fluorescence intensity", "setting": "[7]; [18]", "result": 23, "unit": "MFI"}, {"measurement": "fluorescence intensity", "setting": "[7]; [19]", "result": 41, "unit": "MFI"}, {"measurement": "fluorescence intensity", "setting": "[7]; [20]", "result": 148, "unit": "MFI"}, {"measurement": "fluorescence intensity", "setting": "[7]; [13]", "result": 300, "unit": "MFI"}, {"measurement": "fluorescence intensity", "setting": "[7]; [14]", "result": 450, "unit": "MFI"}, {"measurement": "fluorescence intensity", "setting": "[8]; [15]", "result": 18, "unit": "MFI"}, {"measurement": "fluorescence intensity", "setting": "[8]; [16]", "result": 16, "unit": "MFI"}, {"measurement": "fluorescence intensity", "setting": "[8]; [17]", "result": 17, "unit": "MFI"}, {"measurement": "fluorescence intensity", "setting": "[8]; [18]", "result": 17.5, "unit": "MFI"}, {"measurement": "fluorescence intensity", "setting": "[8]; [19]", "result": 18, "unit": "MFI"}, {"measurement": "fluorescence intensity", "setting": "[8]; [20]", "result": 38.2, "unit": "MFI"}, {"measurement": "fluorescence intensity", "setting": "[8]; [13]", "result": 103, "unit": "MFI"}, {"measurement": "fluorescence intensity", "setting": "[8]; [14]", "result": 229, "unit": "MFI"}, {"measurement": "fluorescence intensity", "setting": "[9]; [15]", "result": 22.2, "unit": "MFI"}, {"measurement": "fluorescence intensity", "setting": "[9]; [16]", "result": 22.5, "unit": "MFI"}, {"measurement": "fluorescence intensity", "setting": "[9]; [17]", "result": 23.5, "unit": "MFI"}, {"measurement": "fluorescence intensity", "setting": "[9]; [18]", "result": 25, "unit": "MFI"}, {"measurement": "fluorescence intensity", "setting": "[9]; [19]", "result": 30.5, "unit": "MFI"}, {"measurement": "fluorescence intensity", "setting": "[9]; [20]", "result": 93.5, "unit": "MFI"}, {"measurement": "fluorescence intensity", "setting": "[9]; [13]", "result": 275, "unit": "MFI"}, {"measurement": "fluorescence intensity", "setting": "[9]; [14]", "result": 492, "unit": "MFI"}, {"measurement": "fluorescence intensity", "setting": "[10]; [15]", "result": 12, "unit": "MFI"}, {"measurement": "fluorescence intensity", "setting": "[10]; [16]", "result": 14.5, "unit": "MFI"}, {"measurement": "fluorescence intensity", "setting": "[10]; [17]", "result": 24, "unit": "MFI"}, {"measurement": "fluorescence intensity", "setting": "[10]; [18]", "result": 101, "unit": "MFI"}, {"measurement": "fluorescence intensity", "setting": "[10]; [19]", "result": 522, "unit": "MFI"}, {"measurement": "fluorescence intensity", "setting": "[10]; [20]", "result": 1670, "unit": "MFI"}, {"measurement": "fluorescence intensity", "setting": "[10]; [13]", "result": 2450, "unit": "MFI"}, {"measurement": "fluorescence intensity", "setting": "[10]; [14]", "result": 2730, "unit": "MFI"}, {"measurement": "fluorescence intensity", "setting": "[11]; [15]", "result": 11, "unit": "MFI"}, {"measurement": "fluorescence intensity", "setting": "[11]; [16]", "result": 12, "unit": "MFI"}, {"measurement": "fluorescence intensity", "setting": "[11]; [17]", "result": 11, "unit": "MFI"}, {"measurement": "fluorescence intensity", "setting": "[11]; [18]", "result": 11.2, "unit": "MFI"}, {"measurement": "fluorescence intensity", "setting": "[11]; [19]", "result": 12, "unit": "MFI"}, {"measurement": "fluorescence intensity", "setting": "[11]; [20]", "result": 17.5, "unit": "MFI"}, {"measurement": "fluorescence intensity", "setting": "[11]; [13]", "result": 33.5, "unit": "MFI"}, {"measurement": "fluorescence intensity", "setting": "[11]; [14]", "result": 64.5, "unit": "MFI"}, {"measurement": "fluorescence intensity", "setting": "[12]; [15]", "result": 14.8, "unit": "MFI"}, {"measurement": "fluorescence intensity", "setting": "[12]; [16]", "result": 15, "unit": "MFI"}, {"measurement": "fluorescence intensity", "setting": "[12]; [17]", "result": 16, "unit": "MFI"}, {"measurement": "fluorescence intensity", "setting": "[12]; [18]", "result": 19, "unit": "MFI"}, {"measurement": "fluorescence intensity", "setting": "[12]; [19]", "result": 34.2, "unit": "MFI"}, {"measurement": "fluorescence intensity", "setting": "[12]; [20]", "result": 93.5, "unit": "MFI"}, {"measurement": "fluorescence intensity", "setting": "[12]; [13]", "result": 225, "unit": "MFI"}, {"measurement": "fluorescence intensity", "setting": "[12]; [14]", "result": 473, "unit": "MFI"}]}]}
